In all, about 33,000 sequences were measured (“E-score (-0.5 to 0.5)”: median about -0.0034, highest 2% from about 0.25 on). Some of the results follow.
biological target: T1, Yap3 (UniProt P38749); assay: PBM E-score (8-mer binding enrichment) (E-score (-0.5 to 0.5)); higher = stronger / more preferred TF binding; conditions: protein concentration: 100 nM; construct: GST-full length
T1 sequence: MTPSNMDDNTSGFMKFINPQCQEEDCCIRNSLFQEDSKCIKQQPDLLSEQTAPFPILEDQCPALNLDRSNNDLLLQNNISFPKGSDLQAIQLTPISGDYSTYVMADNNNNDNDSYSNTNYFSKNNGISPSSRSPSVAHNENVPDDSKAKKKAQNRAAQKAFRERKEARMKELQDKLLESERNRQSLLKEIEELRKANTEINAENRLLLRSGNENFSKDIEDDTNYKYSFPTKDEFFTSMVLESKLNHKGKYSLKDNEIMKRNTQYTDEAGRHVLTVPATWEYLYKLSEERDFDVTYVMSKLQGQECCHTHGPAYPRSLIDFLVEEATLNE
Outline: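 For each ungapped eight-base word taken together with its reverse complement, the Universal PBM Analysis Suite assigned an E-score. Binding data came from GST-tagged yeast transcription factors, applied at about 100-200 nM, on universal all-10-mer Agilent arrays made double-stranded by primer extension. Fluorescent anti-GST marked bound protein, and scans were normalised with masliner.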

Sequence	PBM E-score
ACGCGTCC	-0.154
AGCATTTA	-0.11
AGACTTGC	-0.232
CGGATCCC	-0.215
AGCTGAAG	-0.05
AGCACCGC	-0.145
AACCATAA	0.15
ACCGCACC	-0.116
GGAGTGAA	0.0215
GTGTCGGA	-0.0362
TCATTCAA	0.205
AGGTGTTG	-0.0906
TAGAAGCA	-0.0249
AAGTGGAA	0.0868
CAGCCTTA	-0.202
CCCAAACC	-0.0497
CAATAATA	0.237
AACGGTGC	-0.0807
ACTGGGCC	-0.19
CGAACCTC	0.0449
CGCACACG	-0.135
AGAGTCTA	-0.205
GGGACCTA	0.0331
ATTTAAAA	0.174
ATTGTGAC	0.189

Sequence	PBM E-score
GTCAAGAA	0.2
GTACGCAA	-0.025
CTGAGGGA	-0.192
GCAGTTTA	-0.0546
CTAGCAGA	-0.0869
AATCAAGG	0.127
CCCGGCAC	-0.398
CCCAAGTA	-0.00219
GGTATCAC	-0.016
GGCATCAC	-0.0939
AGGTTTTC	0.087
AATTCGGT	0.231
ACCTTAAA	0.0173
AGCCTAGG	-0.201
ATACACAT	0.2
GTACAGCA	-0.136
ACAGATAC	0.0866
GTCAGTCA	0.067
CTGTATAC	0.0702
GTCACCTA	-0.229
ACTTAATC	0.0861
ACGATTGC	0.124
ACGACCCG	-0.148
ACGGGGGA	-0.125
CCATCGCC	-0.104

Sequence	PBM E-score
CACGGTGC	-0.239
CCTATACA	0.0993
AAAGCGAC	0.101
ATAAAAAG	0.261
GGGAATAA	0.2
AAAGCACT	0.0728
AATACGCC	-0.00808
CTCTGCAC	-0.173
CCGCTATC	-0.0253
CGTCCCCA	-0.216
GGATTTGA	0.00732
CTACGTAC	0.0559
ACGGAACC	0.0898
CTGGTGAA	-0.113
GACGGTTA	-0.0113
GAATAATA	0.292
ACAAGGAT	0.113
ATCGGTCA	-0.0834
CATTATCG	0.129
CAAAGAGA	-0.161
ACTTGTGC	-0.111
AAGGTACA	0.0352
CGCTAAAG	0.0735
AAAAGTCA	-0.0413
TCGTTGAA	0.0281

Sequence	PBM E-score
AAATCCTC	-0.0472
ATAACTCC	0.0161
CTTTACAC	0.179
GCTGGCCC	-0.248
AGATATGC	0.041
AAGCGTCC	-0.189
CAGCAGAG	-0.151
ATGACGGC	-0.0426
CGAGGAAA	0.0324
CTATTTTC	0.114
CTGCACCC	-0.177
GCGCTGAC	0.0532
CTAGGTAC	-0.0662
GGATGCCC	-0.206
ACCGAGCT	-0.13
CATATACA	0.248
ATATTCCA	0.241
CGCAGACA	0.0128
CATAGTGA	-0.13
ATGGTCAA	0.163
CATCCCAG	-0.108
GGCCTTCA	0.0712
AAATGGAG	0.186
CGGAATCA	0.198
CACGTATG	-0.0108

Look-ups from the results shown.
For PBM E-score, AAGCGTCC has -0.189
For PBM E-score, CGGAATCA has 0.198
For PBM E-score, CACGTATG has -0.0108

Following part:

Sequence	PBM E-score
GCTTGTCA	0.0598
CTCCCACA	-0.0565
CGTACCGC	-0.0177
AACCGACA	0.017
CAATTTGG	0.0283
ACACGGGA	-0.0598
AACACTTC	0.15
CCCCGCGC	-0.206
GCCCGGGA	-0.24
ACCACCCT	-0.266
ATCGGCAC	0.0497
CTATGGGC	-0.0642
GCCCCAGA	-0.321
CCACACCC	0.00279
CATGATCG	0.0217
CGCATATC	0.246
CAGGCTAC	-0.097
CTGGTCAC	-0.0493
TACTCCCA	0.0414
AACAAGGT	-0.0132
ATAAATTC	0.153
CCGCACTC	0.0995
AAGTCTAC	-0.121
AACCTTCA	0.0166
AAGCATAT	0.132

Sequence	PBM E-score
ACCGGACA	-0.164
CGGCTAGA	-0.0418
ACGTGGAC	-0.133
CAAAGCCC	-0.169
AGGAGTTG	0.0239
CGTGTCGA	-0.0279
GCAATAAA	0.227
AATATACG	0.116
AGCCTACC	-0.192
CAGGCAAC	0.0026
CATAACTC	-0.0451
ATAATGTG	0.12
ACGACAGC	-0.0101
CGATTAAG	0.125
CACCCTAG	0.0631
AATAGATT	0.0562
ATCTGACG	-0.0636
CGTATAAG	0.0649
ACCCTCAG	-0.135
GCGAGCGA	0.0756
AAGATACT	-0.0357
AATGTGGC	-0.00978
ATCGCATG	0.0992
TCTTACAA	0.0509
ATTAGGAC	-0.0107

Sequence	PBM E-score
CAACGAAA	0.166
ACGGGAGG	-0.169
GTTAATCA	0.256
GTGTTCCA	-0.0346
CCAAGTTC	-0.126
CGGCCCTA	-0.0174
GCACCAGC	-0.211
GCCGCTCA	-0.141
GTAAACTA	0.184
ATGGAACG	0.0119
AGTTAATC	0.0976
AGTCAACG	-0.0169
GAAAACAC	0.189
GCACCAAA	-0.0158
ATCCAGAC	-0.109
AGAGGTGA	0.12
CTTAGTAC	0.0262
AGCCGTGA	-0.018
ACGCCCTA	-0.166
ACAGTTAA	0.19
AGTTGCGG	0.146
ACAAGGTC	-0.0989

Given as labelled records: part of the list above
GTTAATCA
  PBM E-score: 0.256
GTGTTCCA
  PBM E-score: -0.0346
CCAAGTTC
  PBM E-score: -0.126
CGGCCCTA
  PBM E-score: -0.0174

Source: the supplement of paper PMC3334620
